Measured values reported in the supplement of paper PMC10849652.
The list shows a part of the results.

The chains behind the UniProt entries cited, without tags or fusion partners. Where a name states a change or a piece, a line headed by the entry shows the natural chain unless it says otherwise.
UniProt Q96A73: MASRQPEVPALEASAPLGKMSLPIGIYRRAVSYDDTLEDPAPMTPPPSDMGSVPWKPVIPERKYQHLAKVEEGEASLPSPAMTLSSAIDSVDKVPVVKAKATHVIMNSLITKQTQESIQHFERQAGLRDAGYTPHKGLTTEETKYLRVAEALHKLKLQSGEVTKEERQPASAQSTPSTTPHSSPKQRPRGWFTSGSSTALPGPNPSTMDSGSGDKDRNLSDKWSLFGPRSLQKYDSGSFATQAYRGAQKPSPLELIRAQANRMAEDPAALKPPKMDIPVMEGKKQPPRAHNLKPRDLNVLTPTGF
UniProt Q8N5M9: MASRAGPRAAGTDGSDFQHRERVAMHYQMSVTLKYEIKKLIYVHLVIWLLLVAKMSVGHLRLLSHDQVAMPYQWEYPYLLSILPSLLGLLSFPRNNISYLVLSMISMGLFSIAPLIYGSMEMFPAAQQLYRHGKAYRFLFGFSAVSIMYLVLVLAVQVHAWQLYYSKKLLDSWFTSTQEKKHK
UniProt Q9NXV2: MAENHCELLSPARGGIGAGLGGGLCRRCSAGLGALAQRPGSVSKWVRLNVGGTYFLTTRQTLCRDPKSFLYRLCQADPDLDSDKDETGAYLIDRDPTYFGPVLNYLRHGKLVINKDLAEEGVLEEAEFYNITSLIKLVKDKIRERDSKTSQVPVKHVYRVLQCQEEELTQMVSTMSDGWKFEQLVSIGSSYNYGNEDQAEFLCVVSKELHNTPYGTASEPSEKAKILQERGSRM
UniProt Q12840: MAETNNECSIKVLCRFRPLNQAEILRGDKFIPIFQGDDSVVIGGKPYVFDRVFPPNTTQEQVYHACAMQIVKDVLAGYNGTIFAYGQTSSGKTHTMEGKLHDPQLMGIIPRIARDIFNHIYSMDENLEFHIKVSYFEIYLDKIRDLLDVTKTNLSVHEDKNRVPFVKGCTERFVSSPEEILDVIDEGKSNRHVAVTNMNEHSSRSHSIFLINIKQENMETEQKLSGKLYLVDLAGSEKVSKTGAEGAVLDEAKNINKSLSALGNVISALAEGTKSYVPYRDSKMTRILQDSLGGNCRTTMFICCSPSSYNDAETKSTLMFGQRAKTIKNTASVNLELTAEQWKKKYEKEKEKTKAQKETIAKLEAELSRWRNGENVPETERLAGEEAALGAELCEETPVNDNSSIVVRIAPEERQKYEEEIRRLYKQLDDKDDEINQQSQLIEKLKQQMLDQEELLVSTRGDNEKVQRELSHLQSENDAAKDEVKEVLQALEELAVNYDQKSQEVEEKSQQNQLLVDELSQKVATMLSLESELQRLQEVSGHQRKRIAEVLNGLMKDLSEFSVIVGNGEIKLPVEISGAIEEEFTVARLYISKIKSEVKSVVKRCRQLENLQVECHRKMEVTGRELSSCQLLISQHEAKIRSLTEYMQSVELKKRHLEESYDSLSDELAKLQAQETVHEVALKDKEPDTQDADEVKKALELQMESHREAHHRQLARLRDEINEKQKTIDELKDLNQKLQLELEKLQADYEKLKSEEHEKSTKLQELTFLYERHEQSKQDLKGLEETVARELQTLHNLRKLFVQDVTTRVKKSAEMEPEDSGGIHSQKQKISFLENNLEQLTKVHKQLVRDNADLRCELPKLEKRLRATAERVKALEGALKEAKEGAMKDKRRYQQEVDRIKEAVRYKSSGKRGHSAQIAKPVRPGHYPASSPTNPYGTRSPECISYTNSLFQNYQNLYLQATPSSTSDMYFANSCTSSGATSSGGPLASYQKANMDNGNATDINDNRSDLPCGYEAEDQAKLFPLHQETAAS
UniProt Q9NSK0: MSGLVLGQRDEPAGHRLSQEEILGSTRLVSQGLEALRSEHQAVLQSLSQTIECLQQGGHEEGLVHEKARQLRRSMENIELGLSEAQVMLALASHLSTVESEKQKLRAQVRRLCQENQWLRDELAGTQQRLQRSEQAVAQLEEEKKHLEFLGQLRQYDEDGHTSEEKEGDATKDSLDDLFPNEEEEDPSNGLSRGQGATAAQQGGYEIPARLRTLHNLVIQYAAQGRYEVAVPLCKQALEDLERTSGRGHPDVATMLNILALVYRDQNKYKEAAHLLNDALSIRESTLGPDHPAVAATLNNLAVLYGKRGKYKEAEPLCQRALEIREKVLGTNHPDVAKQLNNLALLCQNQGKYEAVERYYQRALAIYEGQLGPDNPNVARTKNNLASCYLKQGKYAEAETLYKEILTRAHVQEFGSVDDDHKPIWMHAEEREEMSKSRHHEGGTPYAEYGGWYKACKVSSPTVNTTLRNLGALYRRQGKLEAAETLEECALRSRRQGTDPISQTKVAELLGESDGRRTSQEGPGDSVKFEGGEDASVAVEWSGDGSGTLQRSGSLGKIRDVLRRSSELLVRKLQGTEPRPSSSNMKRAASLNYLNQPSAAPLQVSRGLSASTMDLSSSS
UniProt Q8N6L1: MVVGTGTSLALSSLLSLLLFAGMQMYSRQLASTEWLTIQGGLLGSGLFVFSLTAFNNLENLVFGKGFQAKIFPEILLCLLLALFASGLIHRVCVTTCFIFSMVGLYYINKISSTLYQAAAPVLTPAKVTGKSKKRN
UniProt Q13303: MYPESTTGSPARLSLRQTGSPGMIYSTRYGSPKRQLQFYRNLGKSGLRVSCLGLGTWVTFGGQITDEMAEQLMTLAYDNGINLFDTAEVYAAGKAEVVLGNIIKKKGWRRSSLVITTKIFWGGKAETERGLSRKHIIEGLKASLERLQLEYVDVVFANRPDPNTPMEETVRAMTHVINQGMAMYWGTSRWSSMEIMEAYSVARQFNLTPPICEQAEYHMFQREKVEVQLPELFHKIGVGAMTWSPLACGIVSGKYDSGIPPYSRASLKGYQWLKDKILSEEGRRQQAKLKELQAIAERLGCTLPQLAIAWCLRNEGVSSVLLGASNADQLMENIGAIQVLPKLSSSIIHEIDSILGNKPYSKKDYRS
UniProt Q674X7: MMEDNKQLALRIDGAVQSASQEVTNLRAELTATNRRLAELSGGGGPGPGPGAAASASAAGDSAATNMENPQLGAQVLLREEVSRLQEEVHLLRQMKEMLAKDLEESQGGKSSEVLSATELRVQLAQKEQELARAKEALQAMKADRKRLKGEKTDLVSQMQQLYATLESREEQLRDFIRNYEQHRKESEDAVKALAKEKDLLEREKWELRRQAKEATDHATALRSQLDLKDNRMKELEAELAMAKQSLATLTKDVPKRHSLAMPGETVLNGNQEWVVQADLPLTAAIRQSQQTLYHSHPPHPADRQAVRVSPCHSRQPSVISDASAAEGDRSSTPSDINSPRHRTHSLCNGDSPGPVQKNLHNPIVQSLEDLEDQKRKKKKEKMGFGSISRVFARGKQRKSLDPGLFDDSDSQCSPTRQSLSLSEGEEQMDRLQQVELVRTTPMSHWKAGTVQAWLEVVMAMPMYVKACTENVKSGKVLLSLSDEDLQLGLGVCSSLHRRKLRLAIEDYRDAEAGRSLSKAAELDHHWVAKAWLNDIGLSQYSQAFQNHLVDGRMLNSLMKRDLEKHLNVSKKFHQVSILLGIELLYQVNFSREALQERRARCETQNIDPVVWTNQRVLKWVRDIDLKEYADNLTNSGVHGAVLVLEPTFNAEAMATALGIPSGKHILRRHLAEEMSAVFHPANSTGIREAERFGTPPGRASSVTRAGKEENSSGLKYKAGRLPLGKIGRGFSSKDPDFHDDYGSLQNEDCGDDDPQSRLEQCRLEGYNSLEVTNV
UniProt Q02241: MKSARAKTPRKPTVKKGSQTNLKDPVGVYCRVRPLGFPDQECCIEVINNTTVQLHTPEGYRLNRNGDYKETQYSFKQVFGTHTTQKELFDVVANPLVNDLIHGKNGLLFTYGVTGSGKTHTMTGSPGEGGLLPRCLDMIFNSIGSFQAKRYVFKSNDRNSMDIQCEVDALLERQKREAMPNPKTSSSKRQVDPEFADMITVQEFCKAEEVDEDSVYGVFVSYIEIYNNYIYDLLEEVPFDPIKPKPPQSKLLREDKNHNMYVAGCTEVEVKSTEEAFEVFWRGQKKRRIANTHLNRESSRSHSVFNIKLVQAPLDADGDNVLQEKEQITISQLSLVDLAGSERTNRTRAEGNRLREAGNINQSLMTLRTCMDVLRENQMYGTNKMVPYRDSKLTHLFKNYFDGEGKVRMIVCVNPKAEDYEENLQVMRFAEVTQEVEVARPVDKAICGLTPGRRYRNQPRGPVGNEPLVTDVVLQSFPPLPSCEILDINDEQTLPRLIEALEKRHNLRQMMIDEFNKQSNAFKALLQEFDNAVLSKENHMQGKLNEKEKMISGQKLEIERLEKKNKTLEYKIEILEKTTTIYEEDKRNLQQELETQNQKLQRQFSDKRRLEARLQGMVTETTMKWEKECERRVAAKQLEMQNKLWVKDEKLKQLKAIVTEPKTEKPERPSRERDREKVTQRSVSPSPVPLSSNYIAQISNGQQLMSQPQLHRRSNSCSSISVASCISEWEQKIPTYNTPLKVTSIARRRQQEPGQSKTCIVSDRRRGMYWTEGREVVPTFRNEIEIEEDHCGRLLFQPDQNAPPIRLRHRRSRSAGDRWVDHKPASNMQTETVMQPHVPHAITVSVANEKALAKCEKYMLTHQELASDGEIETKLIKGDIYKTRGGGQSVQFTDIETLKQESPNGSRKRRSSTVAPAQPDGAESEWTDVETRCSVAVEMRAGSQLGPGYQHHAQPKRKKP
UniProt O75449: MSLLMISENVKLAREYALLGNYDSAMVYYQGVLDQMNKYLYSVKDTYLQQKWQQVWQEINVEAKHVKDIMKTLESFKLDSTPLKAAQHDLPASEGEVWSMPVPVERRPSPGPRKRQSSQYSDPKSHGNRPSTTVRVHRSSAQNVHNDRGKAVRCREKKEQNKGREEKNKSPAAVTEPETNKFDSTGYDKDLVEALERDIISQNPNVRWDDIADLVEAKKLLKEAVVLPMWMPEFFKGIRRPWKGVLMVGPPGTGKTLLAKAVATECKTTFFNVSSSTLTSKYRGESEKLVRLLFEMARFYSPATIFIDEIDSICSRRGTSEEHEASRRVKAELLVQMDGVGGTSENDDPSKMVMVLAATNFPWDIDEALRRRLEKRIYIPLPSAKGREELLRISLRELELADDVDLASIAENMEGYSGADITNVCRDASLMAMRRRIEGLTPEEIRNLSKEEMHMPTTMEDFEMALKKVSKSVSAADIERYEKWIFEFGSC
UniProt P33176: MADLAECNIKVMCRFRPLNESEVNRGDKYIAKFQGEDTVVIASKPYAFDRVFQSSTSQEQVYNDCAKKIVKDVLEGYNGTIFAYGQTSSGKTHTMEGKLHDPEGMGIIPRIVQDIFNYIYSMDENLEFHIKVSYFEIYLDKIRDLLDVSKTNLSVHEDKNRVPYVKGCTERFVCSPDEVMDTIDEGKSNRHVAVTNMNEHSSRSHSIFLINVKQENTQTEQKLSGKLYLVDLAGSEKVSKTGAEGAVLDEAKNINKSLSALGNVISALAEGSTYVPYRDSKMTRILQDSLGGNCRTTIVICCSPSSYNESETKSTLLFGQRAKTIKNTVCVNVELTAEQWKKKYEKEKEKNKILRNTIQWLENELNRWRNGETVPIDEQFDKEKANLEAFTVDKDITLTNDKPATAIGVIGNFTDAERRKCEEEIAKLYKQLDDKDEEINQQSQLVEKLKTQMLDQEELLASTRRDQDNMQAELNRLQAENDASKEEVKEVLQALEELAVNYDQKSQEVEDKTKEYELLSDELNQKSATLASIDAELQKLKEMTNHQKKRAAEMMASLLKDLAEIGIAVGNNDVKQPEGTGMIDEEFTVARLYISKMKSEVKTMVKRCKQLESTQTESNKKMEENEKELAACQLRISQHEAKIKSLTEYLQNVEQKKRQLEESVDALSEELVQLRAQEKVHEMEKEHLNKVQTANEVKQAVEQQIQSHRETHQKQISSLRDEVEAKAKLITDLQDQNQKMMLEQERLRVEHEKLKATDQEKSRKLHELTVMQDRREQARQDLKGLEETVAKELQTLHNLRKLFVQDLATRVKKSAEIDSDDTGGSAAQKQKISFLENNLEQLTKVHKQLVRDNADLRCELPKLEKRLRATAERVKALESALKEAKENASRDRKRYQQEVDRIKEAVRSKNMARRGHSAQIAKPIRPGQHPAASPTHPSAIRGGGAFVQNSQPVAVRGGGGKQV

Key:
Test in all cases: log2 fold change, soluble protein after heating vs DMSO (PISA); higher = thermal stabilisation; K562 cells, 10 uM, 30 min; active = over 0.2 and 3.5 SD of the protein, either way, in both replicates (recomputed)
saracatinib = compound: CN1CCN(CCOc2cc(OC3CCOCC3)c3c(Nc4c(Cl)ccc5c4OCO5)ncnc3c2)CC1 [saracatinib]
Summary of the method: (§1)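 Soluble protein was defined as the supernatant after 21,000xg for 90 min. It came from K562 cells at 2×10^6 cells/mL given 10 μM compound for 30 min, heated in aliquots for 3 min across 48°C-58°C, pooled, and extracted in PBS with 0.5% NP-40 at 4°C, and was quantified by TMTpro 16plex LC-MS/MS with equalised channel sums. Thermal stability against control samples, from duplicates, is reported as log2 fold change.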

sotrastaurin = compound: CN1CCN(c2nc(C3=C(c4c[nH]c5ccccc45)C(=O)NC3=O)c3ccccc3n2)CC1 [sotrastaurin]
Summary of the method: as §1

alvocidib = compound: CN1CC[C@H](c2c(O)cc(O)c3c(=O)cc(-c4ccccc4Cl)oc23)[C@H](O)C1 [alvocidib]
Summary of the method: as §1

Tubastatin A = compound: CN1CCc2c(c3ccccc3n2Cc2ccc(C(=O)NO)cc2)C1 [Tubastatin A]
Summary of the method: as §1

[1] = compound: CNC(=O)C1=CC=CC=C1NC2=NC(=NC=C2Cl)NC3=C(C=C(C=C3)N4CCOCC4)OC
Summary of the method: as §1

defactinib = compound: CNC(=O)c1ccc(Nc2ncc(C(F)(F)F)c(NCc3nccnc3N(C)S(C)(=O)=O)n2)cc1 [defactinib]
Summary of the method: as §1

rucaparib = compound: CNCc1ccc(-c2[nH]c3cc(F)cc4c3c2CCNC4=O)cc1 [rucaparib]
Summary of the method: as §1

[2] = compound: CNc1nc(-c2ccc3c(N)n[nH]c3c2)cc(N2C[C@@H](C(=O)NC3CCCCC3)CC[C@H]2C)n1
Summary of the method: as §1

encorafenib = compound: COC(=O)N[C@@H](C)CNc1nccc(-c2cn(C(C)C)nc2-c2cc(Cl)cc(NS(C)(=O)=O)c2F)n1 [encorafenib]
Summary of the method: as §1

[3] = compound: COC(=O)[C@H](CCSC)NC(=O)C1=C(C=C(C=C1)NC[C@H](CS)N)C2=CC=CC=C2
Summary of the method: as §1

Measured: log2 fold change

KIAA1191 (UniProt Q96A73)
inactive: saracatinib -0.033 | sotrastaurin 0.027 | alvocidib -0.038 | Tubastatin A 0.034 | [1] 0.061 | defactinib 0.017 | rucaparib -0.064 | [2] -0.046 | encorafenib 0.005 | [3] 0.061

JAGN1 (UniProt Q8N5M9)
inactive: saracatinib 0.009 | sotrastaurin 0.036 | alvocidib -0.092 | Tubastatin A 0.005 | [1] -0.021 | defactinib -0.039 | rucaparib 0.031 | [2] -0.031 | encorafenib -0.02 | [3] -0.05

KCTD5 (UniProt Q9NXV2)
inactive: saracatinib 0.03 | sotrastaurin 0.097 | alvocidib -0.094 | Tubastatin A 0.005 | [1] 0.015 | defactinib -0.039 | rucaparib -0.015 | [2] -0.079 | encorafenib 0.084 | [3] 0.03

Two neighbouring records already listed, quoted:
JAGN1 (UniProt Q8N5M9)
inactive: saracatinib 0.009 | sotrastaurin 0.036 | alvocidib -0.092 | Tubastatin A 0.005 | [1] -0.021 | defactinib -0.039 | rucaparib 0.031 | [2] -0.031 | encorafenib -0.02 | [3] -0.05

KCTD5 (UniProt Q9NXV2)
inactive: saracatinib 0.03 | sotrastaurin 0.097 | alvocidib -0.094 | Tubastatin A 0.005 | [1] 0.015 | defactinib -0.039 | rucaparib -0.015 | [2] -0.079 | encorafenib 0.084 | [3] 0.03

Next part.

KIF5A (UniProt Q12840)
inactive: saracatinib 0 | sotrastaurin -0.006 | alvocidib -0.019 | Tubastatin A 0.019 | [1] 0.009 | defactinib -0.038 | rucaparib 0.005 | [2] -0.004 | encorafenib 0.021 | [3] 0.028

KMT2D isoform 3 (UniProt O14686)
inactive: saracatinib -0.072 | sotrastaurin -0.073 | alvocidib -0.071 | Tubastatin A -0.13 | [1] 0.033 | defactinib -0.03 | rucaparib 0.232 | [2] 0.081 | encorafenib 0.036 | [3] -0.105

JMJD1C (UniProt Q15652)
inactive: saracatinib 0.008 | sotrastaurin -0.119 | alvocidib -0.069 | Tubastatin A 0.072 | [1] 0 | defactinib -0.073 | rucaparib -0.023 | [2] -0.045 | encorafenib 0.042 | [3] 0.038

KLC4 isoform 3 (UniProt Q9NSK0)
inactive: saracatinib 0.026 | sotrastaurin -0.044 | alvocidib -0.027 | Tubastatin A 0.02 | [1] 0.037 | defactinib -0.038 | rucaparib -0.031 | [2] -0.011 | encorafenib 0.036 | [3] 0.073

KRTCAP2 isoform 2 (UniProt Q8N6L1)
inactive: saracatinib 0.109 | sotrastaurin -0.03 | alvocidib 0.019 | Tubastatin A 0.032 | [1] -0.035 | defactinib 0.119 | rucaparib -0.05 | [2] -0.047 | encorafenib 0.038 | [3] 0.089

KCNAB2 (UniProt Q13303)
inactive: saracatinib 0.012 | sotrastaurin 0.032 | alvocidib -0.017 | Tubastatin A -0.075 | [1] -0.022 | defactinib 0.044 | rucaparib -0.097 | [2] -0.038 | encorafenib 0.021 | [3] -0.065

KAZN isoform 3 (UniProt Q674X7)
inactive: saracatinib 0.037 | sotrastaurin -0.012 | alvocidib -0.011 | Tubastatin A 0.023 | [1] 0.004 | defactinib -0.084 | rucaparib -0.11 | [2] -0.096 | encorafenib -0.01 | [3] 0.058

KIF23 (UniProt Q02241)
inactive: saracatinib 0.112 | sotrastaurin -0.097 | alvocidib -0.229 | Tubastatin A -0.032 | [1] -0.177 | defactinib -0.054 | rucaparib 0.129 | [2] -0.036 | encorafenib 0.091 | [3] 0.048

KATNA1 (UniProt O75449)
inactive: saracatinib 0.076 | sotrastaurin -0.019 | alvocidib -0.046 | Tubastatin A -0.041 | [1] 0.048 | defactinib 0.025 | rucaparib -0.024 | [2] -0.029 | encorafenib 0.007 | [3] -0.033

KIF5B (UniProt P33176)
inactive: saracatinib 0.014 | sotrastaurin 0.016 | alvocidib -0.06 | Tubastatin A -0.01 | [1] -0.002 | defactinib -0.022 | rucaparib -0.019 | [2] 0.015 | encorafenib 0.014 | [3] -0.011

KPNA2 (UniProt P52292)
inactive: saracatinib -0.152 | sotrastaurin -0.077 | alvocidib 0.196 | Tubastatin A 0.108 | [1] -0.005 | defactinib 0.187 | rucaparib 0.338 | [2] 0.06 | encorafenib 0.196 | [3] -0.068
